Data taken from publication PMC6702834.
No constants are given. Whether binding was seen depends on the method and setting. In cells and extracts the contact can be indirect. A yes stands for co-enrichment or nearness to the bait. Other partners may have been found.

Protein sequences, listed by entry. Tags and fused reporters are not part of them. Lines headed by an entry give the natural chain unless they say otherwise; changes in a name come on top.
UniProt P16070: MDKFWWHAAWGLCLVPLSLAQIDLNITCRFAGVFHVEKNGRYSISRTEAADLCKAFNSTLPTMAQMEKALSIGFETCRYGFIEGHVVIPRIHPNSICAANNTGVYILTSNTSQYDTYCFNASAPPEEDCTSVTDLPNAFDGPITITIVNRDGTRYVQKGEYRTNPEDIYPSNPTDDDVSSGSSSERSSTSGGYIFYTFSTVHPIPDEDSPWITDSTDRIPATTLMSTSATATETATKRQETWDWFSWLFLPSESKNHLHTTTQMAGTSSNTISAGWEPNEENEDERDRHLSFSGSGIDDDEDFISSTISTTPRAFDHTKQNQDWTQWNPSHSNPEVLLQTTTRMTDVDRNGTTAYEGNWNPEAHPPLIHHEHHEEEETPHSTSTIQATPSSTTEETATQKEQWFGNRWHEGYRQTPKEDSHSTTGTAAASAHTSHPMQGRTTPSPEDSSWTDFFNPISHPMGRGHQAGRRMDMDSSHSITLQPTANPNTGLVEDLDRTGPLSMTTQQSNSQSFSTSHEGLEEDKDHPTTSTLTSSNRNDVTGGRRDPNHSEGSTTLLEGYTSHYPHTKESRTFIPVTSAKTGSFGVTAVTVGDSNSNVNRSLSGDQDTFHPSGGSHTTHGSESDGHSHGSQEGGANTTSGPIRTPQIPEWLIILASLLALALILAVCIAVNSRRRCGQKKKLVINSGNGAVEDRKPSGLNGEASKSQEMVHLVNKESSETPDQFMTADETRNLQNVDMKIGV
UniProt Q05397: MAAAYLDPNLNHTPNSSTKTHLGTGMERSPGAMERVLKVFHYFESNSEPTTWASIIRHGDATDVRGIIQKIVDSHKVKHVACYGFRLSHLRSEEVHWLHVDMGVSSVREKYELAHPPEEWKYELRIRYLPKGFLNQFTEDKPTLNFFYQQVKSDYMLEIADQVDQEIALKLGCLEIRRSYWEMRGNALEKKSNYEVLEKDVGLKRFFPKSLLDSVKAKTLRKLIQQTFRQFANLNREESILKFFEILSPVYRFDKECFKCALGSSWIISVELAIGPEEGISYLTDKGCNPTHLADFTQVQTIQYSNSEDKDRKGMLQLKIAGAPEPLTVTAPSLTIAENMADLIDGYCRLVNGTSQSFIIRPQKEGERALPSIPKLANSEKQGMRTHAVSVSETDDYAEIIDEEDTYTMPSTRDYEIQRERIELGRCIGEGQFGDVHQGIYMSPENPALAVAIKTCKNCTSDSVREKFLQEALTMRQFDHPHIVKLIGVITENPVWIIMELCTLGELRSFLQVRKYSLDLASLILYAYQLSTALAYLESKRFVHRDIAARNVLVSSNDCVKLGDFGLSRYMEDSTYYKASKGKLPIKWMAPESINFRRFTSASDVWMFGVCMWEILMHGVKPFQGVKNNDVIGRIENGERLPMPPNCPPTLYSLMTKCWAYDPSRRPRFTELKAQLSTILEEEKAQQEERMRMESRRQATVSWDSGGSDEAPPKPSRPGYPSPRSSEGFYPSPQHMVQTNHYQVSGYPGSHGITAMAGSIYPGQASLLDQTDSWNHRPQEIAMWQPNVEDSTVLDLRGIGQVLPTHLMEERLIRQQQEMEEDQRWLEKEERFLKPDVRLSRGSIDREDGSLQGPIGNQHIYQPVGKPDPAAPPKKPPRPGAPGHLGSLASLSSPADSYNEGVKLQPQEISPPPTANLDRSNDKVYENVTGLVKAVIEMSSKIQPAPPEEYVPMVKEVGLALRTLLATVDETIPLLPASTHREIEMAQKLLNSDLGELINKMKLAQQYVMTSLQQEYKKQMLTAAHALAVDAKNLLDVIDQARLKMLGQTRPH
UniProt Q01082: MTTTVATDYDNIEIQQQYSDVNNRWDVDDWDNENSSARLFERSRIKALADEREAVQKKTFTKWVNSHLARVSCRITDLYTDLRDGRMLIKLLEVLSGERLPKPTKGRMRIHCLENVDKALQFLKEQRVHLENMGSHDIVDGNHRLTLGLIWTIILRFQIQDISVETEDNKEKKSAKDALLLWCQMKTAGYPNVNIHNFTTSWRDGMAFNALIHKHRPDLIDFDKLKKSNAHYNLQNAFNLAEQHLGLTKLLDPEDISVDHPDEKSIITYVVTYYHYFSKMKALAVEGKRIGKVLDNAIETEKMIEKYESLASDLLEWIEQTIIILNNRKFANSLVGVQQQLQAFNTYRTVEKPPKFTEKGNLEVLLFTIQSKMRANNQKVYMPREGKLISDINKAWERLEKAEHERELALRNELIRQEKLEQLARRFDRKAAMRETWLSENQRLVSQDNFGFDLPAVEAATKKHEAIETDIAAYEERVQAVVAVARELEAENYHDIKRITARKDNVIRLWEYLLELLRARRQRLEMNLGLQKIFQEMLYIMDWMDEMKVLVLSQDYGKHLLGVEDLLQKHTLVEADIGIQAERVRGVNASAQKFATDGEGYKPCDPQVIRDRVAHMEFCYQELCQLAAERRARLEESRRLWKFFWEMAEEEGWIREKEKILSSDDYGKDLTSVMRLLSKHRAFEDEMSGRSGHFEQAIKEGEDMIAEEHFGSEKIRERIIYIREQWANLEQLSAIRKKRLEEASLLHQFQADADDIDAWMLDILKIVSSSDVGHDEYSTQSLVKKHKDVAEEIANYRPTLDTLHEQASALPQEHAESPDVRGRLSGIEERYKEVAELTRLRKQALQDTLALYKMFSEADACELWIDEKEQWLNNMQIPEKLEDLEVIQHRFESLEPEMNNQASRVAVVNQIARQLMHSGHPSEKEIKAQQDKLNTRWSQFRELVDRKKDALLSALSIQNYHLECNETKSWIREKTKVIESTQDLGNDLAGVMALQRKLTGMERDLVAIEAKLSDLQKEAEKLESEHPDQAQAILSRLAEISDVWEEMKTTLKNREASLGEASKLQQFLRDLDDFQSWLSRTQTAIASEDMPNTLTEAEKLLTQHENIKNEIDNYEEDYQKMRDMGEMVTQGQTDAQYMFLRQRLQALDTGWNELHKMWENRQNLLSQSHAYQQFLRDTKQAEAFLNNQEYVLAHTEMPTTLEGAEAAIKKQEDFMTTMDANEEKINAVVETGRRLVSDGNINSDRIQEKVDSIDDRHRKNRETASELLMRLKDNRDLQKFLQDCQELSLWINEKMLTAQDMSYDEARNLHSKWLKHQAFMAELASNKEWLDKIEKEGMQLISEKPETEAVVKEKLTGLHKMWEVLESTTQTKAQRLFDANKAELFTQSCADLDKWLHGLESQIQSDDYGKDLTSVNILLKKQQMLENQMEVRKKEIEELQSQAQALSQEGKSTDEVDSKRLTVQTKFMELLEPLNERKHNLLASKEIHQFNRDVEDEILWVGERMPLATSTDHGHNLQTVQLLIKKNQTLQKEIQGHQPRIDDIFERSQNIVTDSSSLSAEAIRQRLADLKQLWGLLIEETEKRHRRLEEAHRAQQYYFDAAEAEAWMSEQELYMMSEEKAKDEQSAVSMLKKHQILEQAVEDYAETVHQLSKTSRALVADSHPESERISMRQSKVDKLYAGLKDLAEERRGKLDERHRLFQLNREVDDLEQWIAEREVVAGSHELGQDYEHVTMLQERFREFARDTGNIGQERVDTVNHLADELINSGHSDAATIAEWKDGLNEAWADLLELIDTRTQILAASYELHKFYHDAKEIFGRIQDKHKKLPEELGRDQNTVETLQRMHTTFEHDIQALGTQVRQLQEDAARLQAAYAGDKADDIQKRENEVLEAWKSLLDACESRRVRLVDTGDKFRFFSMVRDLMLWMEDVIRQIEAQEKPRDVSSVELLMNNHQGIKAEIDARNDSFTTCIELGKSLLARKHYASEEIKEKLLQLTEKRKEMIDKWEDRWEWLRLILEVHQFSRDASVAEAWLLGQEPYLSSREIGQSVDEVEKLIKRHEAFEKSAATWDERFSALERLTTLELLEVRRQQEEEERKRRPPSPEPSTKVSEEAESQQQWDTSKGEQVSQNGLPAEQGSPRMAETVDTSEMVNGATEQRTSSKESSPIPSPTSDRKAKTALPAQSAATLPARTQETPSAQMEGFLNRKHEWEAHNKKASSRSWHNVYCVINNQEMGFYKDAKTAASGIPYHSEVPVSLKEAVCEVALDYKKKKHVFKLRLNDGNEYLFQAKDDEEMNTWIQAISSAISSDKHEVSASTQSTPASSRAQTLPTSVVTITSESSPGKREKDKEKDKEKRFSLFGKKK
UniProt P11055: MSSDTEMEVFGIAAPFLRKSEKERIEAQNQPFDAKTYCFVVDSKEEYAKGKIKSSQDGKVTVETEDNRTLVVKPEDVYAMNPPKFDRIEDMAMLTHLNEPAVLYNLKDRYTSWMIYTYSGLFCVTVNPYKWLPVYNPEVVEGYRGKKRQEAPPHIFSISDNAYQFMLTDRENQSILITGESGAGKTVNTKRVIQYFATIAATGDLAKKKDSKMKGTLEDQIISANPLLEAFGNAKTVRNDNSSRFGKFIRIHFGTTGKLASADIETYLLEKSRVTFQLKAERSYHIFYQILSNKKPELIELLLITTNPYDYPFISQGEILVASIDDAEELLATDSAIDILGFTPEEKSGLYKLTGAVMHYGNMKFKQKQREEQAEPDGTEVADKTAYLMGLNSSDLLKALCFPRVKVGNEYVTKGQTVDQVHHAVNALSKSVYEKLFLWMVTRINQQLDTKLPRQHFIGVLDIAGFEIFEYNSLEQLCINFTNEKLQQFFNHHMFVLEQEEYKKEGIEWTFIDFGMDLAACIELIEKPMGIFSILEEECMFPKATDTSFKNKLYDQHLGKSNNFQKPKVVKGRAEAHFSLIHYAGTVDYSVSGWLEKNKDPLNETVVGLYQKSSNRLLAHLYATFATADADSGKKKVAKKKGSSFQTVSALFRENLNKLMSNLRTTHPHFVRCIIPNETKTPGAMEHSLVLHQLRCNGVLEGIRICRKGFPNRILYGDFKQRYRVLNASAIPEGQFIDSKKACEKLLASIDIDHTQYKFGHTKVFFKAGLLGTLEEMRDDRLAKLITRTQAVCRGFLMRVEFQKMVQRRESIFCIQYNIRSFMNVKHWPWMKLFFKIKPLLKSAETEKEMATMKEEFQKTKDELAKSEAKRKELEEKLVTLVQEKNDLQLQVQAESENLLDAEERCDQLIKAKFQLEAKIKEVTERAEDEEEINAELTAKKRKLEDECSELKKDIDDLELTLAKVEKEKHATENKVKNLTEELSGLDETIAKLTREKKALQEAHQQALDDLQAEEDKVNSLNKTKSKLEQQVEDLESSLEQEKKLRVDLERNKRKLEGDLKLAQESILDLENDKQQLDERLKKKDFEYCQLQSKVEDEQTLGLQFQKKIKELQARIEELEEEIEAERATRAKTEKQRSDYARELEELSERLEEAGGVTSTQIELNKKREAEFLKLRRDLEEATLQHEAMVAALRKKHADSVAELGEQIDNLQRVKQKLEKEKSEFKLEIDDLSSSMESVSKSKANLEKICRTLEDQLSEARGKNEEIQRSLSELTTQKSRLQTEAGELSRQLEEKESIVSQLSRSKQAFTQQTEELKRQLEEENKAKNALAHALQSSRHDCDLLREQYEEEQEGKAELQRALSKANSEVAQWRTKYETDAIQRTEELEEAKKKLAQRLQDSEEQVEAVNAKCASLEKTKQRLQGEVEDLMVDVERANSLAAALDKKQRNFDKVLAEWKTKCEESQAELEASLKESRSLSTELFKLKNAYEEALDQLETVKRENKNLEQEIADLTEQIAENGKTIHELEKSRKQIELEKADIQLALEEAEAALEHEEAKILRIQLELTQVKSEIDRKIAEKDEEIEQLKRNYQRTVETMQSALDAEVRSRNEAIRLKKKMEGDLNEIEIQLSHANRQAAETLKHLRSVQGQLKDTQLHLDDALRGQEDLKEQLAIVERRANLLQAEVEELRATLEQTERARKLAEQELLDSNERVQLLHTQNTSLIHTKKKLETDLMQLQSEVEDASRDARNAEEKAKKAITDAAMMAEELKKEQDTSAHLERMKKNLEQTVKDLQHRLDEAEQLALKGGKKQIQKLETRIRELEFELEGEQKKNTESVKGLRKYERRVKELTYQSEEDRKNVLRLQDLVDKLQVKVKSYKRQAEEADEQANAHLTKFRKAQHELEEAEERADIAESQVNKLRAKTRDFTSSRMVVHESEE

B1: Unconventional myosin-Id (protein, UniProt O94832 1-1006)
chain: MAEQESLEFGKADFVLMDTVSMPEFMANLRLRFEKGRIYTFIGEVVVSVNPYKLLNIYGRDTIEQYKGRELYERPPHLFAIADAAYKAMKRRSKDTCIVISGESGAGKTEASKYIMQYIAAITNPSQRAEVERVKNMLLKSNCVLEAFGNAKTNRNDNSSRFGKYMDINFDFKGDPIGGHINNYLLEKSRVIVQQPGERSFHSFYQLLQGGSEQMLRSLHLQKSLSSYNYIHVGAQLKSSINDAAEFRVVADAMKVIGFKPEEIQTVYKILAAILHLGNLKFVVDGDTPLIENGKVVSIIAELLSTKTDMVEKALLYRTVATGRDIIDKQHTEQEASYGRDAFAKAIYERLFCWIVTRINDIIEVKNYDTTIHGKNTVIGVLDIYGFEIFDNNSFEQFCINYCNEKLQQLFIQLVLKQEQEEYQREGIPWKHIDYFNNQIIVDLVEQQHKGIIAILDDACMNVGKVTDEMFLEALNSKLGKHAHFSSRKLCASDKILEFDRDFRIRHYAGDVVYSVIGFIDKNKDTLFQDFKRLMYNSSNPVLKNMWPEGKLSITEVTKRPLTAATLFKNSMIALVDNLASKEPYYVRCIKPNDKKSPQIFDDERCRHQVEYLGLLENVRVRRAGFAFRQTYEKFLHRYKMISEFTWPNHDLPSDKEAVKKLIERCGFQDDVAYGKTKIFIRTPRTLFTLEELRAQMLIRIVLFLQKVWRGTLARMRYKRTKAALTIIRYYRRYKVKSYIHEVARRFHGVKTMRDYGKHVKWPSPPKVLRRFEEALQTIFNRWRASQLIKSIPASDLPQVRAKVAAVEMLKGQRADLGLQRAWEGNYLASKPDTPQTSGTFVPVANELKRKDKYMNVLFSCHVRKVNRFSKVEDRAIFVTDRHLYKMDPTKQYKVMKTIPLYNLTGLSVSNGKDQLVVFHTKDNKDLIVCLFSKQPTHESRIGELVGVLVNHFKSEKRHLQVNVTNPVQCSLHGKKCTVSVETRLNQPQPDFTKNRSGFILSVPGN
B2: Putative helicase MOV-10 (protein, UniProt Q9HCE1 1-1003)
chain: MPSKFSCRQLREAGQCFESFLVVRGLDMETDRERLRTIYNRDFKISFGTPAPGFSSMLYGMKIANLAYVTKTRVRFFRLDRWADVRFPEKRRMKLGSDISKHHKSLLAKIFYDRAEYLHGKHGVDVEVQGPHEARDGQLLIRLDLNRKEVLTLRLRNGGTQSVTLTHLFPLCRTPQFAFYNEDQELPCPLGPGECYELHVHCKTSFVGYFPATVLWELLGPGESGSEGAGTFYIARFLAAVAHSPLAAQLKPMTPFKRTRITGNPVVTNRIEEGERPDRAKGYDLELSMALGTYYPPPRLRQLLPMLLQGTSIFTAPKEIAEIKAQLETALKWRNYEVKLRLLLHLEELQMEHDIRHYDLESVPMTWDPVDQNPRLLTLEVPGVTESRPSVLRGDHLFALLSSETHQEDPITYKGFVHKVELDRVKLSFSMSLLSRFVDGLTFKVNFTFNRQPLRVQHRALELTGRWLLWPMLFPVAPRDVPLLPSDVKLKLYDRSLESNPEQLQAMRHIVTGTTRPAPYIIFGPPGTGKTVTLVEAIKQVVKHLPKAHILACAPSNSGADLLCQRLRVHLPSSIYRLLAPSRDIRMVPEDIKPCCNWDAKKGEYVFPAKKKLQEYRVLITTLITAGRLVSAQFPIDHFTHIFIDEAGHCMEPESLVAIAGLMEVKETGDPGGQLVLAGDPRQLGPVLRSPLTQKHGLGYSLLERLLTYNSLYKKGPDGYDPQFITKLLRNYRSHPTILDIPNQLYYEGELQACADVVDRERFCRWAGLPRQGFPIIFHGVMGKDEREGNSPSFFNPEEAATVTSYLKLLLAPSSKKGKARLSPRSVGVISPYRKQVEKIRYCITKLDRELRGLDDIKDLKVGSVEEFQGQERSVILISTVRSSQSFVQLDLDFNLGFLKNPKRFNVAVTRAKALLIIVGNPLLLGHDPDWKVFLEFCKENGGYTGCPFPAKLDLQQGQNLLQGLSKLSPSTSGPHSHDYLPQEREGEGGLSLQVEPEWRNEL

The molecules below were run against CD44 variant 6 isoform (human (endogenous in A818.4 and Capan1)) (UniProt P16070) (assay: affinity purification with mass spectrometry; A818.4 (also Capan1) wt and CD44v6kd cells and TEX mildly lysed, precipitated with anti-CD44, Nano-LC-ESI-MS/MS; proteins found in wt but not in CD44v6kd precipitates are called CD44v6-associated).

binding, binds:
FAK (from UniProt Q05397 1-1052) (enzyme)
Endoribonuclease Dicer (from UniProt Q9UPY3 1-1922) (enzyme)
Spectrin beta chain, nonerythrocytic 1 (from UniProt Q01082 1-2364)
chondroitin sulfate proteoglycan 4 (from UniProt Q6UVK1 30-2322)
paxillin (from UniProt P49023 1-591)
Myosin-3 (from UniProt P11055 1-1940)
clathrin heavy chain 1 (from UniProt Q00610 1-1675)

Target: CD44 variant 6 isoform (human (endogenous in A818.4 and Capan1)) (UniProt P16070)
Experiment: as above
Remark: another data set of the same source

binding, binds:
B1
B2
